These are yes or no findings as the source states them, for the method shown. Some entries that bind do so weakly or less than the wild type.

In assay [1] the target is T1, desmoglein 3 in human blood (serum or plasma) samples (human) (UniProt P32926).
T1 sequence: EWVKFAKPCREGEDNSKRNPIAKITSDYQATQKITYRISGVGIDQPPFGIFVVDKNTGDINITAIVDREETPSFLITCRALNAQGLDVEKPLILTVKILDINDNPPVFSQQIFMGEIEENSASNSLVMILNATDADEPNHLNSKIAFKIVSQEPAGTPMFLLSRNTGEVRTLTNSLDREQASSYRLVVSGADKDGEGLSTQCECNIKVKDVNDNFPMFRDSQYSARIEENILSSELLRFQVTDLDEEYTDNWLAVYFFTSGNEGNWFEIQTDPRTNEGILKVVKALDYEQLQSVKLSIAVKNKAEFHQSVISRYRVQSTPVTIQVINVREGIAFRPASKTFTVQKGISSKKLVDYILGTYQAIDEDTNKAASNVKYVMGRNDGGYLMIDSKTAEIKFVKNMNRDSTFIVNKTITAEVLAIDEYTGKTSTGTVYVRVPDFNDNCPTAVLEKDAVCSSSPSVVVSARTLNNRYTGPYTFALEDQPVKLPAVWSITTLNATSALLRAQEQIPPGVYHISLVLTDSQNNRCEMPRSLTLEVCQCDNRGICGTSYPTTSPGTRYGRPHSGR
The experiment in a line: sandwich ELISA on human blood samples; immobilized DF366m, detection biotinylated DF-151. In general terms: In an ELISA, binding on a coated surface is turned into a signal by an enzyme label.

In assay [2] the target is T1, desmoglein 3 in human blood (serum or plasma) samples (human). The experiment in a line: sandwich ELISA on human serum samples; immobilized DF366m, detection biotinylated MAB1720.

B1: DF151 (DF151[I] antibody) (antibody, mouse IgG2b, kappa, V domains shown)
VH: EVQLQQSGPELVKPGASVKISCKASGYSFTAYYMHWVKQSPEKCLEWIGQINPSTGGTTYNQKFKAKATLTVDKSSSTAYMQLKSLTSEDSAVYYCARWGDSWGQGTTLTVSS
VL: DIVLTQSPASLAVSLGQSVTISCRASESVEYYGTSLMQWYQQKPGQPPKLLIYGASDVESGVPARFSGSGSGTDFSLNIHPVEEDDIAMYFCQQSRKVPYTFGSGTKLEIKR
notes: Complete antibody; Biotinylated as detection antibody in ELISA; labeled with Alexa Fluor 647 as detection antibody in SPFS; also called DF151 antibody
Turning to B1, the binding result in assay [1] is reported as “binds”.

B2: DF366m (DF366m[I] antibody) (antibody, mouse IgG2a, kappa, V domains shown)
VH: EVQLQQSGPELVKPGASVKISCKASGYTFTDYNMDWVKQSHGESLEWIGYIYPNNGGSGYNQKFKSKATLTVDKSSSTAYMELHSLTSEDSAVYYCARRDSYYGFDMAWFAYWGQGTLVTVSA
VL: DIQMTQSPASLSASVGETVTITCRPSENIYNNLAWYQQKQGKSPQLLVYVATNLAEGVPSRFSGSGSGTRFSLKINSLQPEDFGKYYCQHSYGTPWTFGGGTKLEIKR
notes: Complete antibody; Plain when immobilized; biotinylated (Biotin-AC5-Osu) when used as detection antibody; also called DF366m antibody
With B2, the binding result in assay [1] and in assay [2] was “binds” each time.

Source of the values: US20150276749A1 (KONICA MINOLTA, published 2015).
